{"sequences": {"note": "By UniProt entry, the sequences of proteins in these tests, tags left out. Residues count along the entry.", "UniProt P29317, residues 24-976": "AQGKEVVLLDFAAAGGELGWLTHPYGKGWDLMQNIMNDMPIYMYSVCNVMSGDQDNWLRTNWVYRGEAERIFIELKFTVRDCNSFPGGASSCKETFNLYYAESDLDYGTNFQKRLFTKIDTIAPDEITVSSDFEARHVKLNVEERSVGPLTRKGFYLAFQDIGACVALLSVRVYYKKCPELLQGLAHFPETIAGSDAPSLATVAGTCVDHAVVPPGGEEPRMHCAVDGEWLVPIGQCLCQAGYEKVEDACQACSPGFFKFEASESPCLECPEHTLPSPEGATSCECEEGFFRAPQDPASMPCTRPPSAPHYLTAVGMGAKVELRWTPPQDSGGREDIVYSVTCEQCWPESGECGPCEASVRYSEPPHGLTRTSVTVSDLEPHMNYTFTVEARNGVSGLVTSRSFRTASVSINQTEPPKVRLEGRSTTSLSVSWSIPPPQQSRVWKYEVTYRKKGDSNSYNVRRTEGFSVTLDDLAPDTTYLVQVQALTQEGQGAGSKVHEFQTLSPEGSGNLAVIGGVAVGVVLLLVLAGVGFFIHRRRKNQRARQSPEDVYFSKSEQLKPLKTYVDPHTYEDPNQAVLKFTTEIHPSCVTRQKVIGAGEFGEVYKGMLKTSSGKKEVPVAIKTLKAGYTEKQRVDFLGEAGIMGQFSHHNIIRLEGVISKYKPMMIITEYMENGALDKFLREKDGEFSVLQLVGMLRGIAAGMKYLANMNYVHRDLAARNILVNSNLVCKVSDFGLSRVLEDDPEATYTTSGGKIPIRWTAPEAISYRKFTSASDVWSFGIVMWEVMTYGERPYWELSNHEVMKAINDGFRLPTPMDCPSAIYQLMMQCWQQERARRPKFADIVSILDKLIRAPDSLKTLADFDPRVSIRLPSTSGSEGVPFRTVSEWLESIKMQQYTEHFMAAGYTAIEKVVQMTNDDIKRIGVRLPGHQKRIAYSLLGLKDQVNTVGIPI", "UniProt Q61772, residues 31-525": "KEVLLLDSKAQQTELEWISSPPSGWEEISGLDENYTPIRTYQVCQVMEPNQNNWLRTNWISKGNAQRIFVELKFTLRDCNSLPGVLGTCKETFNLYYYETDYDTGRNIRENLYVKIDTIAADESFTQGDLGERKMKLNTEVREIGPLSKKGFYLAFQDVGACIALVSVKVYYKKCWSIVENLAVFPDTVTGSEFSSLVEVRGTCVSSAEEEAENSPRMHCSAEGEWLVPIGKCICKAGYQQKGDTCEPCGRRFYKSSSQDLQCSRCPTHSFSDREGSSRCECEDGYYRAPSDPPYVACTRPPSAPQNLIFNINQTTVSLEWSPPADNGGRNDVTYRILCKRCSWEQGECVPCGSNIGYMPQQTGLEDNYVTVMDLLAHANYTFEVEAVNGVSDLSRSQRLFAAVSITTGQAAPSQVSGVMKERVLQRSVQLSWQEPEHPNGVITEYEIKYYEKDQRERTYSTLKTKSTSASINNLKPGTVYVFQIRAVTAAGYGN"}, "source": "patent US20170334966A1", "biological_target": "EphA2 receptor (human) (UniProt P29317)", "assay": "co-immunoprecipitation with anti-EphA7 antibody from lysates of Raji and DoHH2 cells treated with EphA7^Fc, blot probed for EphA2", "note": "Results are given in words; binding and its absence hold for the method and conditions named. Binding seen in cells or lysates may run through a third protein. Some results given as binding are weak or reduced against the parent protein; the word gives no strength."}
{"substance": "immunoglobulin Fc fragment-tagged EphA7^ECD (EphA7^Fc) (from UniProt Q61772 31-525) (Fc fusion)", "values": [{"measurement": "binding", "value": "binds"}]}
